Data reported in article PMC11914548.
No constants are given. Whether binding was seen depends on the method and setting. Binding seen in cells or lysates may run through a third protein. Some binding calls cover weakened binding; strength is not graded here. For some assays here: Sequences can lack the tags named with a protein.

T1: beaded filament structural protein 1 (BFSP1), endogenous in liver cancer cells (human (endogenous in liver cancer cell lines)) (UniProt Q12934)
T1 sequence: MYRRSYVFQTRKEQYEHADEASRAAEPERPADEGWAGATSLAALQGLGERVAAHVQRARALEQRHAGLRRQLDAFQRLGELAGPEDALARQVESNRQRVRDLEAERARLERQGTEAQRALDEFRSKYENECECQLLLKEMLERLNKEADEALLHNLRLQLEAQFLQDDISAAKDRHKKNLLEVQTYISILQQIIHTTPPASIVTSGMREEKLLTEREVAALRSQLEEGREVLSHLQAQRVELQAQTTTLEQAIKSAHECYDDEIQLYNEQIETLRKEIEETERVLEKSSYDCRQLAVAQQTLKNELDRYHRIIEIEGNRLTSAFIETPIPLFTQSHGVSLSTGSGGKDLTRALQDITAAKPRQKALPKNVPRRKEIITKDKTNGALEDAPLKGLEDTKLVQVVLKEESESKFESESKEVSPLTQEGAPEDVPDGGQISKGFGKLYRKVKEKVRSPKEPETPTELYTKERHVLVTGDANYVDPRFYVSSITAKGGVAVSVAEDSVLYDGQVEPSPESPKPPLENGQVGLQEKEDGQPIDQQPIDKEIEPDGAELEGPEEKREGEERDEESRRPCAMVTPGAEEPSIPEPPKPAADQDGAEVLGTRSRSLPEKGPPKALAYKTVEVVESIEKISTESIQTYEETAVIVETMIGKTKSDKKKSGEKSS

T2: BFSP1 as used in the GST pull-down (UniProt Q12934)
T2 sequence: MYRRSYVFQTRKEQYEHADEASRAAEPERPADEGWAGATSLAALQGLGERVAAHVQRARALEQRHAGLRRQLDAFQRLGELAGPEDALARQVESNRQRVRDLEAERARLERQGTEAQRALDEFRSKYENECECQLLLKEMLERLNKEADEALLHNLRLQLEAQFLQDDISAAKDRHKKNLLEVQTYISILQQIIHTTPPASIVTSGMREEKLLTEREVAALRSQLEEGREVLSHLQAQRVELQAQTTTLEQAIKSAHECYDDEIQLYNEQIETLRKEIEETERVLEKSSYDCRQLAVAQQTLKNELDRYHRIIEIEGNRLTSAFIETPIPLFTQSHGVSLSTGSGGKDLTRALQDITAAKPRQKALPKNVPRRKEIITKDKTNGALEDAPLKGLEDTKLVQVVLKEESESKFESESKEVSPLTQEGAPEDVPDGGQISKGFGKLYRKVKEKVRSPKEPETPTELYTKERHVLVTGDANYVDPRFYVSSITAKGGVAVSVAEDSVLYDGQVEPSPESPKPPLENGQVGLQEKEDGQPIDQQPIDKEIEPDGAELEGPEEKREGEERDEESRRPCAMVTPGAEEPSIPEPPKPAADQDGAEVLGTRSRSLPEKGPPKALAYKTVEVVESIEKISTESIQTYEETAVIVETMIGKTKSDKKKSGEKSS


What was measured:
[1] = target: T1, beaded filament structural protein 1 (BFSP1), endogenous in liver cancer cells (human (endogenous in liver cancer cell lines)); test: co-IP; lysate of 5 x 10^6 liver cancer cells, pre-cleared with IgG and protein A/G beads, anti-BFSP1 or anti-TMOD4 overnight at 4 °C, magnetic beads, Western blot
[2] = target: T2, BFSP1 as used in the GST pull-down; test: pull-down; GST pull-down; no methods given, GST-tagged partner not stated

Binder | binding [1] | binding [2]
tropomodulin 4 (TMOD4), endogenous in liver cancer cells (protein, UniProt Q9NZQ9 1-345) MSSYQKELEKYRDIDEDEILRTLSPEELEQLDCELQEMDPENMLLPAGLRQRDQTKKSPTGPLDREALLQYLEQQALEVKERDDLVPFTGEKKGKPYIQPKREIPAEEQITLEPELEEALAHATDAEMCDIAAILDMYTLMSNKQYYDALCSGEICNTEGISSVVQPDKYKPVPDEPPNPTNIEEILKRVRSNDKELEEVNLNNIQDIPIPMLSELCEAMKANTYVRSFSLVATRSGDPIANAVADMLRENRSLQSLNIESNFISSTGLMAVLKAVRENATLTELRVDNQRQWPGDAVEMEMATVLEQCPSIVRFGYHFTQQGPRARAAQAMTRNNELRRQQKKR | binds | –
TMOD4 as used in the GST pull-down (protein, UniProt Q9NZQ9 1-345) MSSYQKELEKYRDIDEDEILRTLSPEELEQLDCELQEMDPENMLLPAGLRQRDQTKKSPTGPLDREALLQYLEQQALEVKERDDLVPFTGEKKGKPYIQPKREIPAEEQITLEPELEEALAHATDAEMCDIAAILDMYTLMSNKQYYDALCSGEICNTEGISSVVQPDKYKPVPDEPPNPTNIEEILKRVRSNDKELEEVNLNNIQDIPIPMLSELCEAMKANTYVRSFSLVATRSGDPIANAVADMLRENRSLQSLNIESNFISSTGLMAVLKAVRENATLTELRVDNQRQWPGDAVEMEMATVLEQCPSIVRFGYHFTQQGPRARAAQAMTRNNELRRQQKKR | – | binds
